# Laboratory results: PubChem BioAssay AID720505 (Drosophila RNAi Screening Center, 2013)
# Purpose: 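Fly regulators or components of the CRAC channel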 (primary screen)
# Cell system: Drosophila S2R+ cells
# Reagents: long dsRNA against Drosophila genes
# Challenge: thapsigargin (2 µM) in calcium-free buffer to empty internal stores, then 2 mM calcium added back
# Read-out: 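Fluo-4 signal in 384-well plates read on a FLIPR after thapsigargin (2 µM, calcium-free) store depletion and 2 mM calcium add-back; unnormalised mean endpoint per well; screen run twice, selected wells retested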
# Direction: calcium signal and retest calcium signal: higher = more calcium entry after store depletion
# Call rule: 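Knock-downs counted as hits when calcium entry dropped relative to STIM1 positive and Rho1 negative controls present on each plate; roughly 1500 genes called, with reductions of differing size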
# Calls: active = called as lowering calcium entry; inactive = not called
# The screen tested about 20,000 reagents; below is an unselected part of those with a known target gene and a result. In the full data, about 2,100 (10%) were called active. 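Raw plate signals without normalisation; calls rest on control-based scores that were not deposited; replicate 2 separates called from uncalled poorly.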 A number with no mark means an inactive call. A plus sign joins genes that one reagent is predicted to hit. Not stated in the record: the amount of reagent, the time to read-out.
Gene,amplicon,"calcium signal, replicate 1","calcium signal, replicate 2","retest calcium signal, replicate 1","retest calcium signal, replicate 2"
CG7720,DRSC16306,96,182,,
CG7720,DRSC16307,73.7,120,,
CG30286,DRSC04070,150,96.1,,
Ebp (Ejaculatory bulb protein),DRSC04048,96.8,103,,
CG34386,DRSC06467,167,168,,
CG34386,DRSC06468,186,205,,
CG34386,DRSC23234,90.6,128,,
Tmlh (Trimethyllysine hydroxylase),DRSC15563,206,149,,
Cftr (CF transmembrane conductance regulator),DRSC15872,162,205,,
CG34200,DRSC04804,104,96.9,,
Klp54D (Kinesin-like protein at 54D),DRSC07450,206,134,,
CG12782,DRSC04127,69.2,131,,
CG34430,DRSC06499,91,126,,
Pdhb (Pyruvate dehydrogenase E1 beta subunit),DRSC14420,125,143,,
Tsf1 (Transferrin 1),DRSC20296,111,144,,
CG12814,DRSC14552,107,158,,
CG12814,DRSC14553,113,117,,
Mp (Multiplexin),DRSC10193,159,97,92.1,114
Mp (Multiplexin),DRSC11029,93.7,82.1,,
Mp (Multiplexin),DRSC11030,113,92,,
PK1-R (Pyrokinin 1 receptor),DRSC16577,89.4,125,,
"ATPsynF (ATP synthase, subunit F)",DRSC04482,187,78.7,,
Ugt36A1 (UDP-glycosyltransferase family 36 member A1),DRSC00748,173,119,,
Hsp60A (Heat shock protein 60A),DRSC20254,122,69.2,,
CG13014,DRSC19533,71.9 (active),135,,
CG14257,DRSC14752,162,156,,
l(3)neo38 (lethal (3) neo38),DRSC14946,109 (active),162,84.1,5226
l(3)neo38 (lethal (3) neo38),DRSC16138,176,119,,
l(3)neo38 (lethal (3) neo38),DRSC23262,164,101,,
CG17325 + CG42305,DRSC02602,131,88.3,,
Indy-2 + CG33934,DRSC15685,192,288,,
Indy-2 + CG33934,DRSC15686,109,101,,
unc80 (uncoordinated 80),DRSC15329,128,106,,
Exd2 (Exonuclease 3'-5' domain-containing 2),DRSC16105,199,150,,
CG13287,DRSC09961,91.9,122,,
CG7213,DRSC10787,113,66.4,,
yrt (yurt),DRSC16559,120,140,,
Osi12 (Osiris 12),DRSC12177,101,79.4,,
CG33235,DRSC19641,83,104,,
Ugt35A1 (UDP-glycosyltransferase family 35 member A1),DRSC16892,118,165,,
CG10802,DRSC17762,79.7,120,,
Rpn13 (Regulatory particle non-ATPase 13),DRSC06379,113,233,,
Sgs5bis,DRSC16263,124,141,,
per (period),DRSC18818,101 (active),100,,
Chd64,DRSC08649,119,84.3,,
CG3526,DRSC18636,104,176,,
Arp6 (Actin-related protein 6),DRSC19326,138,111,,
CG7011 + Prp31,DRSC10760,79.2,83.3,,
Cyp9c1 (Cytochrome P450 9c1),DRSC04607,181,77.5,,
CG5608,DRSC15841,95.3,125,,
CG9628,DRSC11082,95,117,,
NC2beta (Negative Cofactor 2beta),DRSC01895,122,165,,
CG17258,DRSC00495,59.8 (active),81.4,,
CG17258,DRSC22709,97.4,175,,
CG16896,DRSC04284,204,79.5,,
HisRS (Histidyl-tRNA synthetase),DRSC19986,92.8,94.6,,
Baldspot,DRSC09671,113,172,,
RpL24-like (Ribosomal protein L24-like),DRSC16111,147,141,,
PGRP-LD + Cralbp + Pmi,DRSC09743,127,95.4,,
"Itpr (Inositol 1,4,5,-trisphosphate receptor)",DRSC12354,132,128,,
Cyp12c1 (Cytochrome P450 12c1),DRSC11125,119,106,,
Cpr49Ag (Cuticular protein 49Ag),DRSC07203,103,187,,
CG14153,DRSC10155,73.5,108,,
CG14153,DRSC22595,145,199,,
PGRP-SD (Peptidoglycan recognition protein SD),DRSC10856,114,81,,
Wnt6 (Wnt oncogene analog 6),DRSC02795,166,84,,
Gen (XPG-like endonuclease),DRSC09679,67.2 (active),94,,
CG30195,DRSC04155,83.5,141,,
EndoB (Endophilin B),DRSC07345,134,115,,
CG18605,DRSC06772,143,134,,
CG11777,DRSC06081,99.5,203,,
CheB42a (Chemosensory protein B 42a),DRSC22881,129,144,,
Coq8 (Coenzyme Q8),DRSC19900,136,93.1,,
drk (downstream of receptor kinase),DRSC07606,141,105,,
Ag5r2 (Antigen 5-related 2),DRSC19328,113,136,,
Smvt (Sodium-dependent multivitamin transporter),DRSC15426,81.8,131,,
mRpL45 (mitochondrial ribosomal protein L45),DRSC16146,166,126,,
Hsp60B (Heat shock protein 60B),DRSC00542,156,228,,
CG6937 + btn,DRSC16917,141,95.5,,
CG15306,DRSC17993,40.1 (active),87.3,,
CG15306,DRSC18240,91.3,77.5,5133,113
Ucp4C (Uncoupling protein 4C),DRSC03132,162,112,,
CG14022,DRSC02352,194,83.2,,

Called active (from the list above):
Gene,amplicon,"calcium signal, replicate 1","calcium signal, replicate 2","retest calcium signal, replicate 1","retest calcium signal, replicate 2"
CG13014,DRSC19533,71.9 (active),135,,
l(3)neo38 (lethal (3) neo38),DRSC14946,109 (active),162,84.1,5226
per (period),DRSC18818,101 (active),100,,
CG17258,DRSC00495,59.8 (active),81.4,,
Gen (XPG-like endonuclease),DRSC09679,67.2 (active),94,,
CG15306,DRSC17993,40.1 (active),87.3,,
